Reference: the supplement of paper PMC7824004
This is one part of the list. The data scatter; read single values as rough.

What follows are compounds tested on Candida albicans SN425 (assay: biofilm OD600 B-score; higher = more biofilm (less inhibition)). Conditions: 10 µM; assay detail: High-throughput adherence inhibition optical density biofilm assay with C. albicans SN425 in RPMI-1640/MOPS pH 7.0, 384-well plates. ….
Protocol: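 High-throughput adherence inhibition optical density biofilm assay with C. albicans SN425 in RPMI-1640/MOPS pH 7.0, 384-well plates. Compound (10 µM) was present only during the 90 min adherence step, then washed out, and the biofilm grew 24 h without compound. Biofilm was read as OD600 after removing the media. Scores are the difference from the mean in standard deviations and the plate B-score.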

Compound	biofilm OD600 B-score
Cc1ccc(OCC(=O)Nc2nc(C)cc(C)n2)cc1	1.44
CC1=NCCN1S(=O)(=O)c1cc(C)c(Cl)cc1Cl	-0.394
COc1cc(Cl)c(S(=O)(=O)NCCN2CCOCC2)cc1Cl	-0.296
CN1CCCN(CC2CC=CCC2)CC1 (stereo not given)	0.44
COc1ccc(CN2CCc3ccccc3C2)c(OC)c1OC	-1.97
Cc1cc(C)c(NC(=O)CCCC(=O)O)c(C)c1	-3.31
CCCCC(=O)Nc1ccc(NC(=O)c2ccco2)cc1OC	-0.169
C=CCN(CC=C)C(=O)Nc1ccccc1	2.25
CCC(=O)Nc1cc(C(=O)O)ccc1C	0.0158
N=Cc1c2ccc[nH]c-2c2ccccc12	-0.812
O=C(Nc1ccccc1F)c1ccc2snnc2c1	-0.433
Brc1ccc(OCCCn2ccnc2)cc1	1.8
Cn1c(NC(=O)Cc2ccc(Cl)cc2)cc(=O)n(C)c1=O	-3.16
O=C(Cc1ccc(F)cc1)NCc1cccnc1	-1.5
CCN(CC)CCN(C)Cc1cc(OC)c(OC)c(OC)c1	-1.05
Cc1csc(NC(=O)c2ccc(F)cc2)n1	1.19
Cc1ccc(C(=O)N2CCC(C(=O)NCc3ccco3)CC2)cc1	1.13
CC(=O)N1CCN(C2CCN(CCc3ccccc3)CC2)CC1	2.17
CCOc1ccccc1N1CCN(C(=O)NC2CCCCC2)CC1	0.344
Cc1ccc(S(=O)(=O)Nc2ccccc2CNc2ccccc2)cc1	0.144

In the list so far, 2 have a furan ring, fused or not:
Compound	biofilm OD600 B-score
CCCCC(=O)Nc1ccc(NC(=O)c2ccco2)cc1OC	-0.169
Cc1ccc(C(=O)N2CCC(C(=O)NCc3ccco3)CC2)cc1	1.13

Continuation:

Compound	biofilm OD600 B-score
CC(=O)Nc1cccc(NC(=O)c2ccc(F)cc2)c1	1.21
CCCN(CCO)Cc1ccc(F)c(Br)c1	-1.65
O=C(Nc1ccc(OCC(=O)N2CCOCC2)cc1)c1cccs1	0.672
NC(=O)c1ccc(NC(=O)C2CCN(C(=O)Cc3ccccc3)CC2)cc1	1.44
CC(C)(Oc1ccc(Cl)cc1)C(=O)Nc1ncn[nH]1	-0.8
CCNC(=O)CN(c1ccc(CC)cc1)S(C)(=O)=O	-0.182
CCN(CC)S(=O)(=O)c1cc(Cl)c(OC)cc1Cl	-0.547
Cc1ccc(NC(=O)CC(C)C)c(NC(=O)CC(C)C)c1	2.24
COc1c(S(=O)(=O)NCc2ccncc2)ccc(Cl)c1Cl	-1.04
Cc1cc(NC(=O)c2ccc(Br)o2)no1	-0.0608
CC(=O)Nc1ccc(-c2ccc(NC(C)=O)c(C)c2)cc1C	-3.17
Cc1onc(-c2ccccc2Cl)c1C(=O)Nc1ncccc1Cl	1.67
CC1CC(O)(C#N)C(C)CN1C (stereo not given)	0.0937
CN(C)CCCC(=O)c1ccc2c(c1)OCO2	-2.18
N#Cc1cc2c(nc1SCC(N)=O)CCCC2	0.069
Cc1cccc(NC(=O)CCN2CCOCC2)c1	-3.01
CS(=O)(=O)Nc1ccccc1C(=O)NCc1ccccc1	0.689
COc1ccc(CNC(=O)CCc2ccccc2)cc1OC	-3.86
COc1cc2c(C)[nH]c(=O)c(CC(=O)Nc3ccccc3)c2cc1OC	-0.211
O=C(O)C1C2C=CC(C2)C1C(=O)N1CCCC1 (stereo not given)	0.636
